# Data taken from PubChem BioAssay AID624297 (National Center for Advancing Translational Sciences (NCATS), 2012).
# Screen size: about 340,000 compounds; about 6,200 (1.8%) were called active. This list was built around the results that the source calls inconclusive (neither active nor inactive); the mix of calls is not that of the screen. The call rests on the fitted dose curve; in most records, active means well fitted activation curve with a large enough effect; inconclusive means small, poorly fitted or top-dose-only effect; inactive means no such curve, though single readings can be large or run the other way. A potency beside an inconclusive call is a rough fit, not a confirmed value.
# Assay: A quantitative high throughput screen for small molecules that induce DNA re-replication in SW480 colon adenocarcinoma cells. Further: nearly all actives have a fitted effect of over 55% in size. On re-replication activation: % of control where 0% means no effect.
# Settings: Hoechst DNA content imaging, 48 h; re-replication activation: at 46.1 µM (top of the series) unless noted
# How it was run: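 Compounds, transferred as 23 nL by pin tool, were incubated with cells for 48 hr; DNA content per nucleus was then quantified by Hoechst staining and fluorescence plate imaging.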
# Potency means the concentration at half of the fitted maximal effect.
SMILES,Potency,re-replication activation
COc1ccc(-n2c(SCCC#N)nnc2-c2cc(Cl)ccc2OC)cc1Cl,"inconclusive: 18.4 µM [activator, single point]",–
COc1cc(OC)c(C(=O)Nc2ccncc2)cc1OC,"inconclusive: 0.517 µM [activator, full curve, poor fit]",–
COc1ccccc1NC(=S)NCc1ccc2c(c1)cc(C)n2C,"inconclusive: 29.1 µM [activator, single point]",–
COCCNC(=O)c1c(N)n(-c2cccc(C)c2)c2nc3ccccc3nc12,active: 13 µM,–
CNC(=O)COC(=O)Cc1ccc(Cl)cc1,"inconclusive: 6.51 µM [activator, single point]",–
C[C@H]1CN([C@@H](C)CO)C(=O)Cc2cc(NC(=O)CCC(F)(F)F)ccc2O[C@H]1CN(C)S(=O)(=O)c1ccc(Cl)cc1,active: 3.26 µM,–
c1ccc(COn2nnc3ccccc32)c(COn2nnc3ccccc32)c1,inactive,–
C[C@@H]1CN([C@@H](C)CO)C(=O)c2cc(NC(=O)Nc3ccc(F)cc3)ccc2O[C@@H]1CN(C)Cc1ccc(Oc2ccccc2)cc1,"inconclusive: 29.1 µM [activator, single point]",–
CC(C)[N+]1(C)[C@@H]2CC[C@H]1CC(OC(=O)C(CO)c1ccccc1)C2 (stereo not given in full),"inconclusive: 0.259 µM [activator, single point]",–
O=C(/C=C/c1ccc(Cl)cc1)N1CCOCC1,"inconclusive: 29.1 µM [activator, single point]",–
Cc1ccc(CN(C(=O)c2csnn2)C(C(=O)NC2CCCC2)c2cccnc2)cc1 (stereo not given),"inconclusive: 5.62 µM [activator, single point]",–
Cc1ccc(-n2c(O)c(/C=N/Nc3ccc(S(=O)(=O)N4CCOCC4)cc3[N+](=O)[O-])c3ccccc3c2=O)c(C)c1,"inconclusive: 25.9 µM [activator, single point]",–
CCCc1ccc(OCC(O)CN2CCN(c3ccccc3)CC2)cc1 (stereo not given),"inconclusive: 29.1 µM [activator, single point]",–
Cc1cc(C)cc(N(CC(=O)Nc2cccc(C)n2)S(=O)(=O)c2c(C)noc2C)c1,"inconclusive: 25.9 µM [activator, single point]",–
COc1cccc(CN(C)C(=O)c2cc(COc3c(F)cccc3F)on2)c1,inactive,–
CCCNC(=O)c1ccc(S(=O)(=O)c2ccc(OC)cc2)c([N+](=O)[O-])c1,"inconclusive: 20.6 µM [activator, single point]",–
Cc1ccc(NC(NC(=O)c2ccccc2[N+](=O)[O-])C(Cl)(Cl)Cl)cc1 (stereo not given),inactive,–
Nc1c(C(=O)NCCC2=CCCCC2)sc2ccc(S(=O)(=O)N3CCCCC3)cc12,"inconclusive: 32.6 µM [activator, single point]",–
CCc1ccccc1Nc1nc(N)nc(COC(=O)CCNS(=O)(=O)c2ccccc2)n1,inactive,–
Cc1nc2ccccc2n1C1CCN(CC(=O)Nc2ccccc2Br)CC1,"inconclusive: 16.4 µM [activator, single point]",–
O=C(Nc1ccc2nc(-c3ccco3)c(-c3ccco3)nc2c1)N1CCN(c2ccccn2)CC1,"inconclusive: 25.9 µM [activator, single point]",–
CCOC(=O)c1c(C)[nH]c(C(=O)OCC(=O)Nc2cc(C)c(Cl)cc2OC)c1C,"inconclusive: 18.4 µM [activator, single point]",–
S=C(Nc1cccnc1)NC1CC2CCC1C2 (stereo not given),"inconclusive: 16.4 µM [activator, partial curve, poor fit]",–
Cc1ccc(-c2cc(C(F)(F)F)n3nc(C(=O)N4CCN5CCCC5C4)cc3n2)cc1 (stereo not given),"inconclusive: 18.4 µM [activator, single point]",–

# One compound at a time, from the list above. Values in the order: Potency | re-replication activation
# CNC(=O)COC(=O)Cc1ccc(Cl)cc1 is listed with inconclusive: 6.51 µM [activator, single point] | –
# COc1ccc(-n2c(SCCC#N)nnc2-c2cc(Cl)ccc2OC)cc1Cl is listed with inconclusive: 18.4 µM [activator, single point] | –
# O=C(/C=C/c1ccc(Cl)cc1)N1CCOCC1 is listed with inconclusive: 29.1 µM [activator, single point] | –
# O=C(Nc1ccc2nc(-c3ccco3)c(-c3ccco3)nc2c1)N1CCN(c2ccccn2)CC1 is listed with inconclusive: 25.9 µM [activator, single point] | –

# Next part:

SMILES,Potency,re-replication activation
CC(=O)c1sc2nsc(SCCN3CCOCC3)c2c1N,"inconclusive: 18.4 µM [activator, partial curve, poor fit]",–
O=C(C[C@H]1C[C@H](C(=O)N2CCCCC2)[C@@]2(CCc3ccccc3)c3[nH]c4ccc(Cl)cc4c3CCN2C1=O)NCCCn1ccnc1,inactive,–
COc1ccc(/C=C/C(=O)NCC2COc3ccccc3O2)cc1OC (stereo not given),inactive,–
CCOc1ccc(/C=N/NC(=O)c2cc3c(OC)cc(OC)c(OC)c3[nH]2)cc1,"inconclusive: 29.1 µM [activator, single point]",–
Fc1ccccc1N=C1NN=C(c2ccccc2)CS1,"inconclusive: 29.1 µM [activator, single point]",–
CN1CCN(Cc2ccc(Sc3ccc(Cl)cc3)c([N+](=O)[O-])c2)CC1,inactive,–
CCN(C(=O)COC(=O)CNC(=O)c1ccc(C)cc1)c1c(N)n(Cc2ccccc2)c(=O)[nH]c1=O,inactive,–
Nc1ccc(C(=O)OCC(=O)c2cccc([N+](=O)[O-])c2)cc1,"inconclusive: 18.4 µM [activator, single point]",–
CC(=O)Nc1cccc(NC(=O)c2ccc(COc3ccccc3)cc2)c1,"inconclusive: 20.6 µM [activator, single point]",–
CC(C)Cc1nc(SCC(=O)N2CCOCC2)c2c(=O)n(C)c(=O)n(C)c2n1,"inconclusive: 29.1 µM [activator, single point]",–
COC(=O)C(=O)C1CCc2c(Cl)cc(OC)c(OC)c2C1=O (stereo not given),"inconclusive: 20.6 µM [activator, single point]",–
C=CCCC(=O)Nc1nc(C)c(-c2csc(Nc3ccccc3OC)n2)s1,"inconclusive: 18.4 µM [activator, single point]",–
COc1ccc(S(=O)(=O)Nc2ccc(C)cc2)cc1N(C)S(=O)(=O)c1ccc(Cl)cc1,"inconclusive: 29.1 µM [activator, partial curve, poor fit]",–
Cc1ccc(S(=O)(=O)N2CCCN(C)c3nc4ccccc4nc32)cc1,"inconclusive: 29.1 µM [activator, single point]",–
Cn1c(Cn2nnc3ccccc32)nnc1SCC(=O)N1c2ccccc2Sc2ccccc21,inactive,–
COCCCNC(=O)[C@H](CSCc1ccccc1)N1Cc2ccccc2C1=O,"inconclusive: 18.4 µM [activator, single point]",–
CN(Cc1ccccc1)C(=O)c1ccc2c(c1)OCCO2,inactive,–
O=C(Nc1ccc(F)cc1)C(=O)c1cn(CC(=O)N2CCOCC2)c2ccccc12,"inconclusive: 20.6 µM [activator, single point]",–
CCOc1ccccc1NC(=S)N(Cc1cc2ccc(C)cc2[nH]c1=O)CC1CCCN1CC (stereo not given),"inconclusive: 29.1 µM [activator, single point]",–
CCc1ccccc1NC(=O)c1ccc(CN2CCC(Cc3ccccc3)CC2)cc1,"inconclusive: 29.1 µM [activator, single point]",–
CCNc1ccccc(-c2ccc3ccccc3n2)c1=O,"inconclusive: 10.3 µM [activator, partial curve]",–
Cc1ccc(C)c(S(=O)(=O)N2CCCC2CNC(=O)C(=O)NCC2CCCO2)c1 (stereo not given),active: 5.8 µM,–
Clc1ccc(-c2nc3ncccn3c2Nc2ccc3c(c2)OCO3)cc1,inactive,–
O=C(Nc1c[nH]c(=O)[nH]c1=O)c1ccccc1Br,–,inconclusive: 1.3% [activator]

SMILES,Potency,re-replication activation
S=C(NC1CCCC1)NC1CCCC1,inactive,–
COc1ccc(C(CNC(=O)C(C)c2ccc3cc(OC)ccc3c2)N(C)C)cc1 (stereo not given),"inconclusive: 25.9 µM [activator, single point]",–
CCOc1ccccc1CNC(=O)Cn1ccc2cc(S(=O)(=O)N3CCCC3)ccc21,inactive,–
CCOC(=O)c1[nH]c2ccccc2c1N=C(C)N(CC)CC,"inconclusive: 18.4 µM [activator, single point]",–
COc1ccc(-c2c3c(=O)n(C)c(=O)n(C)c3cn2-c2cccc(OC)c2)cc1,"inconclusive: 16.4 µM [activator, single point]",–
COc1ccc(-n2ncc3c(NCc4ccc5c(c4)OCO5)ncnc32)cc1,inactive,–
Cc1cc(=O)oc2cc(OCCCC[n+]3ccccc3)ccc12,inactive,–
CN(C)c1ccc(Nc2nc(-c3cccnc3)cs2)cc1,inactive,–
CC1CCCN(C(=S)NCc2ccccc2)C1 (stereo not given),inactive,–
N#C/C(=C(/O)COC(=O)CSc1ccc(Cl)cc1)c1nc2ccccc2[nH]1,"inconclusive: 29.1 µM [activator, single point]",–
Cc1ccc(OCCn2cc(/C=C/C(=O)O)c3ccccc32)cc1,"inconclusive: 6.51 µM [activator, single point]",–
Cc1cc(C)c(NC(=O)Cn2nnc(C(=O)NCc3ccc4c(c3)OCO4)c2N)c(C)c1,"inconclusive: 20.6 µM [activator, single point]",–
C/C(=N/Nc1ccnc2cc(Cl)ccc12)c1ccc(O)cc1,inactive,–
CN1Cc2c(N3CCOCC3)nc(SCc3ccccc3)c(C#N)c2CC1(C)C,"inconclusive: 18.4 µM [activator, single point]",–
N=c1c2c(n(Cc3ccc([N+](=O)[O-])cc3)c3c1CCC3)CCCC2,inactive,–
O=C(CSc1nnc(CNc2ccc(Cl)cc2)o1)Nc1nc2c(s1)CCCC2,inactive,–
Cc1cc(C(=O)NC2CCCN(Cc3ccc(Cl)cc3)C2)n(C)n1 (stereo not given),inactive,–
COc1ccc(S(=O)(=O)N(C)CC(=O)N2CCN(c3ccc(F)cc3)CC2)cc1OC,inactive,–
O=C(Nc1ccc(NC(=O)C2CCCCC2)cn1)c1ccco1,inactive,–
O=C(CCl)c1cc2c3c(c1)CC(=O)N3CCC2,active: 16.4 µM,–
COc1cccc(CN2C(=O)C(C)N(C(=O)c3c(F)cccc3F)c3ccccc32)c1 (stereo not given),inactive,–
Cc1cccc(CS(=O)(=O)Cc2ccc(C(=O)NC3CCCCC3)o2)c1,"inconclusive: 29.1 µM [activator, single point]",–
